# Percent effect of library compounds

Measurements from “University of Dundee, Small-Polar-MMV Screening Library” (2021), ChEMBL document CHEMBL3988442.

The filed quantity is “Percent Effect” (%). How 0% and 100% were set is not recorded. Most values in the screen are low, and negative values occur. Compounds were drawn at random from those tested, without regard to their results. Two or more numbers in one place are separate tests of the same structure; such repeats can differ widely.

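Cell assay of Leishmania donovani living inside macrophages; the read-out is not stated. Concentration: 30 µM. Higher reads as stronger inhibition (inferred: compounds with an IC50 in retests scored well above the rest). Size under these conditions: about 69,000 compounds, about 1,000 of them at 50% or above in at least one test.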

For Cc1ncc(C(=O)N2CCOC(C(=O)N3CCCCC3)C2)c(C)n1 (centres unmarked) the result was 11.97%. For CSc1cc2c(cc1NC(=O)NCC(=O)N(C)C)OCCO2 the result was -13.19%. [H][C@@]12CCN(S(=O)(=O)CC)[C@]1([H])CC[C@@H](c1nc(C)no1)O2 gave 15.66%. Result for Cc1csc(CN2CCC3(CC2)COC(COCC2CC2)C3)n1.O=C(O)C(F)(F)F (centres unmarked) was 32.59%. Result for Cc1cc(C(=O)N2CCN(c3nc4ccccc4s3)CC2)no1 was -27.77%. CCOc1ncccc1NC(=O)NC1CCN(S(C)(=O)=O)CC1 read 1.531%. For O=c1[nH]c(-c2ccc(Cl)cc2)nc2c1CCNC2 the result was 20.84%. CN(C)[C@H]1CN(C(=O)CCc2cccc(F)c2)C[C@@H]1C1CC1 gave -0.01033%.

With [H][C@@]12CN(C(=O)c3ccsc3)C[C@]1([H])C(=O)N(Cc1cccc(C)c1)C2 the screen gave 19.13%. Result for Cc1cc(C)cc(NC(=O)CN2CCCC(n3cncn3)C2)c1 (centres unmarked) was 6.288%. CN(C)c1cc(C2CCCN(S(=O)(=O)c3cn(C)cn3)C2)ccn1 (centres unmarked) read 19.56%. Result for O=C(c1cnc(-c2cnccn2)s1)N1CCCC1Cn1cccn1 (centres unmarked) was 10.36%. Result for CCc1ccc(C(=O)N2CCN(c3nc(C)cc(OC)n3)CC2)o1 was 8.396%. CNS(=O)(=O)CCn1cc(-c2cc3c(cc2OC)CCC3)nn1 read -25.47%. For COc1ccccc1C1CNC(=O)c2nc(-c3cnn(C)c3)[nH]c2C1 (centres unmarked) the result was 28.82%. Cc1n[nH]c(C)c1C1CCCN1C(=O)c1coc(Br)c1 (centres unmarked) read -16.48%.

Result for CCC[C@H]1CN(C2CCOCC2)C[C@@H]1NC(=O)CCn1ccnc1C was 8.904%. With O=C1CC(N(C(=O)c2ccc(Oc3ccccc3)cc2)C2CC2)C(=O)N1 (centres unmarked) the screen gave 6.703%. O=C(CN1CCSC(c2ccccc2)C1)NCc1ccccn1 (centres unmarked) read -3.921%. Result for O=C(O)C(F)(F)F.O=C(c1cscn1)N1CCc2ncnc(-c3cccnc3)c2CC1 was 20.88%. For O=C(CSc1nc2nncc-2c(O)n1-c1ccccc1)N1CCOCC1 the result was 9.25%. With Fc1cccc(NCc2ncc[nH]2)c1 the screen gave 6.43%. For COC(=O)C(NC(=O)COC1CCCCC1)c1ccccc1 (centres unmarked) the result was -3.147%. O=C(C1CCCN1c1ncnc2ccsc12)N1CCSCC1 (centres unmarked) read 8.662%.

With Cc1nc(Cn2cc(C#N)c(=O)c3ccccc32)no1 the screen gave -0.3234%. Result for CCC(=O)N1CCN(Cc2cc(-c3ccncc3)nn2C)CC1 was -14.68%. With Cc1nc2n(n1)CC(NCc1cnn(-c3ccccc3)n1)CC2 (centres unmarked) the screen gave 9.875%. With Cc1nn(CCC(=O)NC2CCS(=O)(=O)C2)c(C)c1Br (centres unmarked) the screen gave 17.95%. With CCn1cnnc1CNC(=O)N1CCN(c2cccc(OC)c2)CC1 the screen gave 6.25%. For Cc1nc(O)cc(C2CCN(C(=O)c3[nH]nc4c3CC(C)CC4)CC2)n1 (centres unmarked) the result was 15.21%. For [H][C@]12C[C@H](NC(=O)c3cc[nH]n3)[C@@]1([H])CN(S(=O)(=O)c1ccc(C)cc1)C2 the result was -17.93%. For COCC(=O)NCC1CCCN(Cc2cc3ccccc3[nH]2)C1 (centres unmarked) the result was -28.77% and 3.609%.

CN1CCC(c2cc(C(F)(F)F)n3ccnc3n2)CC1 gave -17.34% and 21.31%. Result for O=C(Nc1nccs1)NC1CCN(CC2CCCC2)CC1 was 33.47%. For COc1cc(CC2CC(C(N)=O)=NO2)cc2c1OCO2 (centres unmarked) the result was -5.837%. With Cc1cnn(CC2CCCCN2Cc2c(C)noc2C)c1 (centres unmarked) the screen gave 26.38%. With Cc1cnn(-c2cccc(N3CCCCC3)n2)c1 the screen gave -15%. With Cc1cc(C)n(CC(=O)N2Cc3cnc(C(C)(C)C)nc3C2)n1 the screen gave 4.757%. CNc1cncc(C2CCCN2Cc2cccc(C)n2)n1 (centres unmarked) read -4.285% and -1.581%. Cc1cc(C(=O)N2CCC3(CC2)C(=O)NCCN3CC(C)C)c(C)o1 read 31.1%.

[H][C@]12CC[C@@H](Nc3cccnn3)[C@@]1([H])CN(Cc1c[nH]c3ccccc13)C2 gave 6.696%. Cc1cc(N)n(-c2ccc3nnc(C)n3n2)n1 read 12.13%. Cc1nccc(C2CN(Cc3ccc(-c4ccccc4C(=O)O)o3)C2)n1 read 39.4%. With COCCN1CCC2(CCCN(c3ncc(F)cn3)C2)C1 (centres unmarked) the screen gave 6.774%. With CN(CC(=O)Nc1cc(-c2cc(Cl)cc(Cl)c2)[nH]n1)S(C)(=O)=O the screen gave 5.087%. For O=C(c1ccc(S(=O)(=O)NCc2ccon2)cc1)N1CCOCC1 the result was 0.2735%. COCc1nnc(NC(=O)c2cn(C(C)C)c3ccc(OC)cc23)s1 gave 22.22%. Result for Cc1noc(C)c1CNC(=O)N(C1CC1)C(C)c1ccco1 (centres unmarked) was 4.344%.

CCc1cc(=O)[nH]c(-n2nc(C3CC3)cc2NC(=O)C2CC2)n1 read 75.16% and 25.91%. [H][C@@]12COC[C@H](C(=O)N3CCCO3)[C@]1([H])CN(Cc1ccco1)C2 gave 4.091%. With COCCNc1nc(N2CCCC2)nc2nccnc12 the screen gave -5.962%. For Cc1nc(C)n(CC2CCCCN2Cc2nc3ccccc3o2)n1 (centres unmarked) the result was -7.383%. CCc1noc(CN(C)C(=O)COc2cc(Cl)cc(Cl)c2)n1 gave -29.58%.

4 of the entries, repeated:

* [H][C@@]12CN(C(=O)c3ccsc3)C[C@]1([H])C(=O)N(Cc1cccc(C)c1)C2 | 19.13%
* O=C(c1ccc(S(=O)(=O)NCc2ccon2)cc1)N1CCOCC1 | 0.2735%
* O=C(c1cnc(-c2cnccn2)s1)N1CCCC1Cn1cccn1 (centres unmarked) | 10.36%
* Cc1nn(CCC(=O)NC2CCS(=O)(=O)C2)c(C)c1Br (centres unmarked) | 17.95%